Test results: US20220041752A1 (Bayer, published 2022)
No constants are given. Whether binding was seen depends on the method and setting. Some results given as binding are weak or reduced against the parent protein; the word gives no strength.

Chains of the proteins cited; added tags and fusions are not shown. Lines headed by an entry give the natural chain unless they say otherwise; changes in a name come on top.
UniProt P10646: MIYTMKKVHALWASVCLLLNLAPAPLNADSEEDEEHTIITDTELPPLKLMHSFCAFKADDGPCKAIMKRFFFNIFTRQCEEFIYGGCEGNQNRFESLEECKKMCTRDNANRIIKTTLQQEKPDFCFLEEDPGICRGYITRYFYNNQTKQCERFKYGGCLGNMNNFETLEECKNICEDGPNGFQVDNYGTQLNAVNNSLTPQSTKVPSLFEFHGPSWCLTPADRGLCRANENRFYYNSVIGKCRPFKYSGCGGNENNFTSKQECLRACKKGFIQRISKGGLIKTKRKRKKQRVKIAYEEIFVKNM

Assays:
[1] = biological target: TFPI Kunitz domain 1+2 (Asp1 to Phe154) (human) (UniProt P10646); assay: X-ray co-crystal structure
[2] = biological target: TFPI Kunitz domain 1+2 (Asp1 to Phe154) (human) (UniProt P10646); assay: analytical SEC and western blot
[3] = biological target: TFPI Kunitz domain 1+2 (Asp1 to Phe154) (human) (UniProt P10646); assay: analytical size exclusion chromatography
[4] = biological target: TFPI Kunitz domain 1+2 (Asp1 to Phe154) (human) (UniProt P10646); assay: analytical size exclusion chromatography (S75 5/150)
[5] = biological target: TFPI Kunitz domain 1+2 (Asp1 to Phe154) (human) (UniProt P10646); assay: SEC and western blot of purified TFPI Kunitz domain 1+2
[6] = biological target: TFPI Kunitz domain 1+2 (Asp1 to Phe154) (human) (UniProt P10646); assay: analytical size exclusion chromatography (S75 5/150, 100 mM Tris HCl pH 7.5), absorbance in mAU against elution volume in ml

Measured: binding

B1: Fab B (Fab, V domains shown)
VH: QVELVESGGGLVQPGGSLRLSCAASGFTFRSYGMSWVRQAPGKGLEWVSSIRGSSSSTYYADSVKGRFTISRDNSKNTLYLQMNSLRAEDTAVYYCARLYRYWFDYWGQGTLVTVSS
VL: DIELTQPPSVSVAPGQTARISCSGDNLRNYYAHWYQQKPGQAPVVVIYYDNNRPSGIPERFSGSNSGNTATLTISGTQAEDEADYYCQSWDDGVPVFGGGTKLTVLG
notes: also called monoclonal TFPI antibody Fab B
binds: all assays above
